Measurements: article PMC7819943, “Rice protein-binding microarrays: a tool to detect cis-acting elements near promoter regions in rice”
This is one part of the list.

By UniProt entry, the sequences of proteins in these tests, tags left out.
UniProt Q0JBA9, entry or part of it: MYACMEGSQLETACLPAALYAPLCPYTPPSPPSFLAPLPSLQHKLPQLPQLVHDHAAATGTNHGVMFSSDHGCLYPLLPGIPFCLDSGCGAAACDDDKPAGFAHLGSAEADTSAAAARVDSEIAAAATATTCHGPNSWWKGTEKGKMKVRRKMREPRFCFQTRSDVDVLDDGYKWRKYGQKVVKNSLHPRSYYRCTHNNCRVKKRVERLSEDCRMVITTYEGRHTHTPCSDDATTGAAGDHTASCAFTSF

The sequences below were run against OsWRKY34 (Oryza sativa, UniProt Q0JBA9 1-250) (assay: protein-binding microarray (RPBM); PBS, 2% BSA, 51.3 ng/ul salmon testes DNA, 50 uM zinc acetate, 200 nM TF, 25 C, 1 h; high values mean tight binding). Details: protein: recombinant; tags: N-terminal polyhistidine and DsRed monomer fusion (pET32a); label: CyDye5-dUTP incorporated in the synthesized complementary strand; 3' TTTTT single-stranded linker to array surface; dsDNA, one strand shown.
Method in brief: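 The binding signal is fluorescence intensity per feature, in arbitrary units, read on an Axon 4000B scanner. Polyhistidine- and DsRed-tagged transcription factors (N-terminal fusions) from E. coli BL21-CodonPlus were purified on Ni–NTA and applied at 200 nM for 1 h at 25 °C to a double-stranded, BSA-blocked custom Agilent array in buffer with 50 µM zinc acetate.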
With “AATGAATAGCATTGAGCTTCATCCCTGTTCGTTTCTCACGCGGAGTCACCTAGTGCAG” the binding signal was 8850 fluorescence intensity (a.u.). “GTCAGACAGCTTGTTGCCTTGTTGTTGCTGAGTTTCTCTCCGGAGTCACCTAGTGCAG” was tested, and the binding signal was 9460 fluorescence intensity (a.u.). For “TTTCGTGCATTTCTTACATTTTCTCCATGAATATAACGCTCGGAGTCACCTAGTGCAG”, the binding signal was 9860 fluorescence intensity (a.u.). In the case of “CCTTGTGATCGTCTGATCTCTTCTTTGTAGTTGCCTCCTCCGGAGTCACCTAGTGCAG”, the binding signal is reported as 9080 fluorescence intensity (a.u.). “CGGCTCACGGCTCGCCCGCTCTCGTTCTCCACCTTATCACCGGAGTCACCTAGTGCAG” was tested, and the binding signal was 8160 fluorescence intensity (a.u.). In the case of “AAAAAGAGTTCTCTTCTTCACTTCTACTCTTCACAACTTTCGGAGTCACCTAGTGCAG”, the binding signal is reported as 9410 fluorescence intensity (a.u.). For “GGGAAATCCCTCGTGGGGAACAGGTTTGACCGACCTTTCACGGAGTCACCTAGTGCAG”, the binding signal was 8220 fluorescence intensity (a.u.). With “CGTCCGTCCACCGACCCAGCAGTGCACCTCCCGTTCGCCTCGGAGTCACCTAGTGCAG” the binding signal was 8210 fluorescence intensity (a.u.). For “TGTTCTTTTTCTCTCACATGCCACCTCCTACCCAATCATGCGGAGTCACCTAGTGCAG”, the binding signal was 8720 fluorescence intensity (a.u.). “CTGTGGTGGTGTGCATACGGGTTGGGGTGGAGGGCTGCTCCGGAGTCACCTAGTGCAG” was tested, and the binding signal was 17900 fluorescence intensity (a.u.). For “TACTCCTACGAACGCGCCACCTTCACCTCATGTACGTATACGGAGTCACCTAGTGCAG”, the binding signal was 9610 fluorescence intensity (a.u.). For “GCCCACCTTGATTTGCTCGTACTTTGATTCTTTCTGCCTCCGGAGTCACCTAGTGCAG”, the binding signal was 10600 fluorescence intensity (a.u.). With “TCCGGTTCGTTATTTTTATTTTTCTCAGGGAAAAAAAATCCGGAGTCACCTAGTGCAG” the binding signal was 8060 fluorescence intensity (a.u.). For “TAGTCGGTTTATTGGCTTATTAGCTATTTGAATTTTAAAACGGAGTCACCTAGTGCAG”, the binding signal was 8050 fluorescence intensity (a.u.). For “CCACTCATCATCAAACTCTCTCTCTCTCTCTCTCTCTCTCCGGAGTCACCTAGTGCAG”, the binding signal was 8550 fluorescence intensity (a.u.). With “GTGTGCGCCACTTCTCTCGGGACGGGACGGGACGGGCGCGCGGAGTCACCTAGTGCAG” the binding signal was 8640 fluorescence intensity (a.u.). For “ACTGCCCTTATCATTTCCGATTCCGTTTCCGAGAAAATATCGGAGTCACCTAGTGCAG”, the binding signal was 9240 fluorescence intensity (a.u.). With “GTCTTTGTTCGTTTGGTCGTTGCTACAAGTACATCGCATTCGGAGTCACCTAGTGCAG” the binding signal was 12200 fluorescence intensity (a.u.). With “TACCCAAACACACTTAACCACAACAAGTCTGCATCATTCTCGGAGTCACCTAGTGCAG” the binding signal was 10300 fluorescence intensity (a.u.). In the case of “GCATTTCGCTTCCCAAACTCCAGCTTACCGCCTAACCCCACGGAGTCACCTAGTGCAG”, the binding signal is reported as 9170 fluorescence intensity (a.u.). With “AACGTTCCGACTCGCCTCCACCACGACAACTCGCACCACACGGAGTCACCTAGTGCAG” the binding signal was 8900 fluorescence intensity (a.u.). In the case of “CATCCATAAAAGCTTTCCATATCATCTCAGAAGTACTCTACGGAGTCACCTAGTGCAG”, the binding signal is reported as 8190 fluorescence intensity (a.u.). “AAAGATTGAGGGGAAGGGTGATAGGTGGGCCCCACGTGGGCGGAGTCACCTAGTGCAG” was tested, and the binding signal was 8900 fluorescence intensity (a.u.). With “ATTTTCTTGTTTTACGTGTGACTTAATCTTCAATTTCATCCGGAGTCACCTAGTGCAG” the binding signal was 13100 fluorescence intensity (a.u.). “TTTTCTTGGCATGGTGACCTATTTTTACTGCCTTAACCTTCGGAGTCACCTAGTGCAG” was tested, and the binding signal was 9380 fluorescence intensity (a.u.). In the case of “CCATCAGTTTGCCCTCCGCCGCCGCCGCCTCCGCCGCCGCCGGAGTCACCTAGTGCAG”, the binding signal is reported as 8520 fluorescence intensity (a.u.). For “AAACTATACTCTCTTTGTCTCATTTTAAGTGCAGTCATAACGGAGTCACCTAGTGCAG”, the binding signal was 8730 fluorescence intensity (a.u.). In the case of “AATGTTTGACACCGTTGACTTTTTAACACATGTTTGACCGCGGAGTCACCTAGTGCAG”, the binding signal is reported as 39300 fluorescence intensity (a.u.). With “AACAATCTAATCTATCTCTGCTTCCAATTCCCATACAAAGCGGAGTCACCTAGTGCAG” the binding signal was 10600 fluorescence intensity (a.u.). “GCCACATATACACGGTACCCTCTTCCTTGCATTGCAACCACGGAGTCACCTAGTGCAG” was tested, and the binding signal was 9870 fluorescence intensity (a.u.). In the case of “TCTCCCCGCCCGCATCCTCGCTCTGCGCCTCCTCTCCTCACGGAGTCACCTAGTGCAG”, the binding signal is reported as 8580 fluorescence intensity (a.u.). In the case of “CTATACCAACGCACTTTTTCTGGAATTCGCGTTAACCCTACGGAGTCACCTAGTGCAG”, the binding signal is reported as 8780 fluorescence intensity (a.u.). With “CTCCGCGCCCGTGCAGCACCCCGAGCCCGAGCCCCACCGACGGAGTCACCTAGTGCAG” the binding signal was 10100 fluorescence intensity (a.u.). With “ACTCAACAACAACTTGATAGTTATTAACGTTTGACTTAAACGGAGTCACCTAGTGCAG” the binding signal was 8340 fluorescence intensity (a.u.). “AGCTAGGCAAGGTGGACATATGTTTTTCCTTTGGTATTTTCGGAGTCACCTAGTGCAG” was tested, and the binding signal was 8740 fluorescence intensity (a.u.). With “CCGCGCCTCTCCTCGCCTCCGCCTCCGTGCGCGGCTGCCGCGGAGTCACCTAGTGCAG” the binding signal was 9340 fluorescence intensity (a.u.). In the case of “TGCCGTCACCCTATTTCACCTGCCTTCTTCGCCCGTCGCCCGGAGTCACCTAGTGCAG”, the binding signal is reported as 9120 fluorescence intensity (a.u.). For “GTAGGCGGGTGTTGGGTCGGTGCTTTTGTTTACAGCTAAGCGGAGTCACCTAGTGCAG”, the binding signal was 9130 fluorescence intensity (a.u.). With “ACATTCTACCGCGGGACACACACTCGTCTTTACCACACAACGGAGTCACCTAGTGCAG” the binding signal was 10100 fluorescence intensity (a.u.). For “TGCATTTTCTCGCATCCACCGTTTAGATTTATTGAGTCGCCGGAGTCACCTAGTGCAG”, the binding signal was 9860 fluorescence intensity (a.u.). “GAAGATCAATGATTCACTGTTTACTCGGCTTCTTCGCTGTCGGAGTCACCTAGTGCAG” was tested, and the binding signal was 9350 fluorescence intensity (a.u.). For “GCCTACCCTGTTCTGCCAGGTTTTGCTTCTCCTGCGTCCTCGGAGTCACCTAGTGCAG”, the binding signal was 11000 fluorescence intensity (a.u.).
